The target of one assay is alpha-catenin (UniProt P35221). The assay can be described thus: co-immunoprecipitation from transfected HEK 293T cells, western blot.
Assay [1] has as its target T1, HA-tagged CDH26 (human) (UniProt Q8IXH8).
T1 sequence: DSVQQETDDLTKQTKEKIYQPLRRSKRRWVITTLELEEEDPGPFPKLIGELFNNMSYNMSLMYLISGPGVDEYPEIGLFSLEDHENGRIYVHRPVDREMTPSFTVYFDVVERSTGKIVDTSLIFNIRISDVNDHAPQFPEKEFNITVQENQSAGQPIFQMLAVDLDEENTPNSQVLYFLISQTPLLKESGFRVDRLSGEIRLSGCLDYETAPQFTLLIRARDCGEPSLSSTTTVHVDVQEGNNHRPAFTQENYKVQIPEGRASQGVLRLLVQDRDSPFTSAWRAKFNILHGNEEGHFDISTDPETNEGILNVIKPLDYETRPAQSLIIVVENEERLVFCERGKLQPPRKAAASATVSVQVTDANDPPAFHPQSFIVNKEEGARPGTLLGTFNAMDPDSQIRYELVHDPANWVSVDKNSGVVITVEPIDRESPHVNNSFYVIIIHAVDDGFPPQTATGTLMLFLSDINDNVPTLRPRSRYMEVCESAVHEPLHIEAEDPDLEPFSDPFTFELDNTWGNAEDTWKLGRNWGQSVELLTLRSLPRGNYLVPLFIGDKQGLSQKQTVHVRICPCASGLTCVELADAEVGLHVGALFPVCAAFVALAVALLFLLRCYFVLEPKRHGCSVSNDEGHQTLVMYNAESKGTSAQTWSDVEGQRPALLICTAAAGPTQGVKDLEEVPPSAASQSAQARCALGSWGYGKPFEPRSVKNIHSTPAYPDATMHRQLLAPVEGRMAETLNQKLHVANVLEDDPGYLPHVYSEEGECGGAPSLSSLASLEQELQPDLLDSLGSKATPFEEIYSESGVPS
In words: summary of the co-immunoprecipitations.

Amino acid sequences for entries named in this document (tags omitted).
UniProt P35221: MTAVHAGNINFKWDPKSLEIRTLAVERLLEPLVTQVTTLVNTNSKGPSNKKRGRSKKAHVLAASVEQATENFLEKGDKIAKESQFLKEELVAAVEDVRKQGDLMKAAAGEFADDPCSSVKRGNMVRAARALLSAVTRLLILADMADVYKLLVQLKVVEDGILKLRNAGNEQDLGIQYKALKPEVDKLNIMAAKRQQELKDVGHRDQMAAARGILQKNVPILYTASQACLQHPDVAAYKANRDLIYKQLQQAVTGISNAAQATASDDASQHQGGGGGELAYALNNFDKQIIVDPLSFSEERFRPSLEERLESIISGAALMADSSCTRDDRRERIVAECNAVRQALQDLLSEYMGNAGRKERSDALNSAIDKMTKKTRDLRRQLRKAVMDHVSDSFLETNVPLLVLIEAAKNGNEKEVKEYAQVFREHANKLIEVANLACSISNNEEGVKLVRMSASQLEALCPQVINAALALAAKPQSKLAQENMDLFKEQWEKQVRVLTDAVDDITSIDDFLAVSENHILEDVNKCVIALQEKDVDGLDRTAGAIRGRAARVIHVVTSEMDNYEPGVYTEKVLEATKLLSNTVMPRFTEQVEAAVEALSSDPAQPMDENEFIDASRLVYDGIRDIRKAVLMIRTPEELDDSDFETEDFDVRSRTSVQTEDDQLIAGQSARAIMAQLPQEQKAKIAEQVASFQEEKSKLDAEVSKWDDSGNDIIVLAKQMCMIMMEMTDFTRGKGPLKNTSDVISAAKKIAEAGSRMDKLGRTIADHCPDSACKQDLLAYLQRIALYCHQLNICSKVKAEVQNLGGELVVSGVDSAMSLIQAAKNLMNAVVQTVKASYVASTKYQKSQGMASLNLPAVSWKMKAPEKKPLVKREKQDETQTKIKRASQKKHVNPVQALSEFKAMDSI
UniProt P35222: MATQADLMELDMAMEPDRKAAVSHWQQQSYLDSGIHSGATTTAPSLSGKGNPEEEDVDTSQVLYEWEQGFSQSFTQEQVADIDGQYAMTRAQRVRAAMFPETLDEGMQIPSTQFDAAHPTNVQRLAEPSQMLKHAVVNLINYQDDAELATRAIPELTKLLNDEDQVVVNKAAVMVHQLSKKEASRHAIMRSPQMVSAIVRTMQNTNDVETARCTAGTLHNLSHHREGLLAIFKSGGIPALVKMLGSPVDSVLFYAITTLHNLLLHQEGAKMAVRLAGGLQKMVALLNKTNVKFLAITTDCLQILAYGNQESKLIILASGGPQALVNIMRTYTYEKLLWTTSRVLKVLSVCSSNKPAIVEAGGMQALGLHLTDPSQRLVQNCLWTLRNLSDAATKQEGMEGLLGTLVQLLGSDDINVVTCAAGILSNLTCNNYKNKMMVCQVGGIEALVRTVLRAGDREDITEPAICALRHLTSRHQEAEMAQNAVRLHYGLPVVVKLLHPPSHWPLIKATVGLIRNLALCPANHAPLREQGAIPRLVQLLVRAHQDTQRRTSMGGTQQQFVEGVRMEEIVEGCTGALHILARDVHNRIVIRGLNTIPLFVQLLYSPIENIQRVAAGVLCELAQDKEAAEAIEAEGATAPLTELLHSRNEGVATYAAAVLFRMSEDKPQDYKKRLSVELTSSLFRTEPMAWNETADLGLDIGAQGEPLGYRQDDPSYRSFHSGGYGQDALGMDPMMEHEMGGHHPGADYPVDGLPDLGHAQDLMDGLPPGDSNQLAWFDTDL

Assay [2] has as its target T1, HA-tagged CDH26 (human). In words: co-immunoprecipitation from HEK 293T cells overexpressing both proteins.
Assay [3] addresses T1, HA-tagged CDH26 (human). The assay can be described thus: co-immunoprecipitation from co-transfected HEK 293T cells, western blot.
Assay [4] has as its target T2, integrin α4 overexpressed in HEK 293T cells (UniProt P13612).
T2 sequence (looked up): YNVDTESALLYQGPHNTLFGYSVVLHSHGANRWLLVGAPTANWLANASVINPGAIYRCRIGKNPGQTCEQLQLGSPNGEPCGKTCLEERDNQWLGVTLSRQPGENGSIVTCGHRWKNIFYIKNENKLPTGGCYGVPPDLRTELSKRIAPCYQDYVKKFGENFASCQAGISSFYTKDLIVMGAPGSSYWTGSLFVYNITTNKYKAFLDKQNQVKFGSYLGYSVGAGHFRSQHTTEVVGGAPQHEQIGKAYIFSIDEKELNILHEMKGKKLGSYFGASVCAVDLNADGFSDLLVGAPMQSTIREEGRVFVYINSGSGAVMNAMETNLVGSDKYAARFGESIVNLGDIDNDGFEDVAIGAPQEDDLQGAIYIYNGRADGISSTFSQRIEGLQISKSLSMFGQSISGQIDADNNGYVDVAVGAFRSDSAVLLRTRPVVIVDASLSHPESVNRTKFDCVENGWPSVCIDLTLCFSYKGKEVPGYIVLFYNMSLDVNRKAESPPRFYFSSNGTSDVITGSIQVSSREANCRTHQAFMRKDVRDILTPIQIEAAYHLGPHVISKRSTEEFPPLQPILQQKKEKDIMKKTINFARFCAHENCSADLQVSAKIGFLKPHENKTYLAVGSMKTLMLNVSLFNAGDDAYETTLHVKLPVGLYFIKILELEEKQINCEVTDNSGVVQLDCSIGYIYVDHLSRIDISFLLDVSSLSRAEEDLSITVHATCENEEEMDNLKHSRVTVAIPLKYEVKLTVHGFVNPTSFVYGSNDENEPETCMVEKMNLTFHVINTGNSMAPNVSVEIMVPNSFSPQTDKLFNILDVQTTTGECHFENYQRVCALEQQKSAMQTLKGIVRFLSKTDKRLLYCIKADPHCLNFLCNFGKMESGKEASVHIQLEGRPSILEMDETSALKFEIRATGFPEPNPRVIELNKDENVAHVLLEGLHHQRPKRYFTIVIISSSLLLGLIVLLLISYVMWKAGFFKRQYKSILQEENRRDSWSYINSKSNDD
The assay can be described thus: co-immunoprecipitation from HEK 293T cells overexpressing both proteins.

For assay [5], the target named is T3, Myc-tagged CDH26 (human) (UniProt Q8IXH8).
T3 sequence: T1 sequence
In words: summary at the head of the examples.

Assay [6] has as its target T4, V5-tagged integrin αE (human) (UniProt P38570).
T4 sequence (looked up): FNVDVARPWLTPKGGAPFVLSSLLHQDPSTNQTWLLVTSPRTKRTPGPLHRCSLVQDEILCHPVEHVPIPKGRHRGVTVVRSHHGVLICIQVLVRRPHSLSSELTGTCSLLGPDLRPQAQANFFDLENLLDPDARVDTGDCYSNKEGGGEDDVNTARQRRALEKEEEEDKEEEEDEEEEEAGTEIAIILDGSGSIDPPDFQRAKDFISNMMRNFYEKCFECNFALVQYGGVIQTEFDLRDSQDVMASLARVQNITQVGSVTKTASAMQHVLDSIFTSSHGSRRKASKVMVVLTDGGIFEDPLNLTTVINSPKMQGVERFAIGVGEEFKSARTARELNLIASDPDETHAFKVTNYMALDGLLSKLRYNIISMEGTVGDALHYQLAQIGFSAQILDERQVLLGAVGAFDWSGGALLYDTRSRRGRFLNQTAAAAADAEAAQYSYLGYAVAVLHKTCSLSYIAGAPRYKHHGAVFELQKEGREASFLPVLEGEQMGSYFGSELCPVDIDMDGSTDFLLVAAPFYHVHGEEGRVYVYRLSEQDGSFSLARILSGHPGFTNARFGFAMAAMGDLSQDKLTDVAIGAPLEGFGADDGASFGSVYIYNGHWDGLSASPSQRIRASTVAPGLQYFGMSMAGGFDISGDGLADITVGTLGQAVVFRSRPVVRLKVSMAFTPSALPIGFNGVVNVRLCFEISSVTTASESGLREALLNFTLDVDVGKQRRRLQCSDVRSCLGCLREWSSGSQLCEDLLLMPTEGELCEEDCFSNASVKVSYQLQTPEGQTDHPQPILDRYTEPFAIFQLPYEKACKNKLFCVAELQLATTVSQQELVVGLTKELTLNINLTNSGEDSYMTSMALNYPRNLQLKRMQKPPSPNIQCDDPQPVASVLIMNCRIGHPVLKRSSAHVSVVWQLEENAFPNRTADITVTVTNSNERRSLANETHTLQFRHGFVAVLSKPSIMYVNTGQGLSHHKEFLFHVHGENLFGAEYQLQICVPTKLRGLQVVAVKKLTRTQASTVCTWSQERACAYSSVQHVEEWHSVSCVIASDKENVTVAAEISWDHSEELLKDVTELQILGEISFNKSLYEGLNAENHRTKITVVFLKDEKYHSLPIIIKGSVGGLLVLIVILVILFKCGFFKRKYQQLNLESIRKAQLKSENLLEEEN
The assay can be described thus: summary at the head of the examples; the biochemical assay is taken to be the co-immunoprecipitation.

Assay [7] concerns the target T3, Myc-tagged CDH26 (human). The assay can be described thus: co-immunoprecipitation from co-transfected HEK 293T cells, western blot. In general terms: Immunoblotting shows a protein as a band on a membrane.
The target of assay [8] is T3, Myc-tagged CDH26 (human). The assay can be described thus: summary of the co-immunoprecipitation of differently tagged CDH26.

Results are given in words; binding and its absence hold for the method and conditions named. For some assays here: In cells and extracts the contact can be indirect. Some binding calls cover weakened binding; strength is not graded here. For some assays here: Tags and fused reporters may be left off the sequences shown.

Turning to “beta-catenin (positive control in the alpha-catenin immunoprecipitation) (from UniProt P35222 1-781)”, in the assay with alpha-catenin, the binding entry is recorded as “binds”.
Take “integrin α4 overexpressed in HEK 293T cells (from UniProt P13612 34-1032) (receptor)”: the binding result with HA-tagged CDH26 (human) [1] and with HA-tagged CDH26 (human) [2] was “binds” throughout.

B1: Myc-tagged CDH26 (receptor, not shown: small tags and cut ends)
chain: T1 sequence
For B1, in the assay with HA-tagged CDH26 (human) [3], the binding result is recorded as “binds”.

B2: HA-tagged CDH26 (receptor, not shown: small tags and cut ends)
chain: T1 sequence
As to B2, the binding result (in assay [4]; with Myc-tagged CDH26 (human) [5]; in [6]; with Myc-tagged CDH26 (human) [7]; with Myc-tagged CDH26 (human) [8]) was “binds” throughout.

B3: V5-tagged integrin αE (receptor, human, UniProt P38570 19-1179, looked up, not shown: small tags and cut ends)
chain: T4 sequence (looked up)
Consider B3, for which the binding entry with HA-tagged CDH26 (human) [1] and with HA-tagged CDH26 (human) [2] was “binds” each time.

The values are drawn from US20180148492A1 (CHILDREN S HOSPITAL MEDICAL CENTER, published 2018).
